The match of structure and compound is tentative.
Experiments:
[1] = target: biotinylated Avi-POLΘ[2-894] (Homo sapiens, UniProt O75417); experiment: ATPase assay (ADP-Glo): POLΘ-mediated ATP hydrolysis; conditions: read-out: Biochemical ATPase ADPGlo IC50
DLD1 BRCA2 (−/−) cells = experiment: DLD1 viability assay (CellTiter-Glo, 7 days), DLD1 BRCA2 (−/−); assay type: cell-based; conditions: read-out: Viability IC50 (μM) DLD1 BRCA2 null
DLD1 WT cells = experiment: DLD1 viability assay (CellTiter-Glo, 7 days), DLD1 WT; assay type: cell-based; conditions: read-out: Viability IC50 (μM) DLD1 WT

Chains of the proteins cited; added tags and fusions are not shown. Residues count along the entry.
UniProt O75417, 2-894 limits assumed: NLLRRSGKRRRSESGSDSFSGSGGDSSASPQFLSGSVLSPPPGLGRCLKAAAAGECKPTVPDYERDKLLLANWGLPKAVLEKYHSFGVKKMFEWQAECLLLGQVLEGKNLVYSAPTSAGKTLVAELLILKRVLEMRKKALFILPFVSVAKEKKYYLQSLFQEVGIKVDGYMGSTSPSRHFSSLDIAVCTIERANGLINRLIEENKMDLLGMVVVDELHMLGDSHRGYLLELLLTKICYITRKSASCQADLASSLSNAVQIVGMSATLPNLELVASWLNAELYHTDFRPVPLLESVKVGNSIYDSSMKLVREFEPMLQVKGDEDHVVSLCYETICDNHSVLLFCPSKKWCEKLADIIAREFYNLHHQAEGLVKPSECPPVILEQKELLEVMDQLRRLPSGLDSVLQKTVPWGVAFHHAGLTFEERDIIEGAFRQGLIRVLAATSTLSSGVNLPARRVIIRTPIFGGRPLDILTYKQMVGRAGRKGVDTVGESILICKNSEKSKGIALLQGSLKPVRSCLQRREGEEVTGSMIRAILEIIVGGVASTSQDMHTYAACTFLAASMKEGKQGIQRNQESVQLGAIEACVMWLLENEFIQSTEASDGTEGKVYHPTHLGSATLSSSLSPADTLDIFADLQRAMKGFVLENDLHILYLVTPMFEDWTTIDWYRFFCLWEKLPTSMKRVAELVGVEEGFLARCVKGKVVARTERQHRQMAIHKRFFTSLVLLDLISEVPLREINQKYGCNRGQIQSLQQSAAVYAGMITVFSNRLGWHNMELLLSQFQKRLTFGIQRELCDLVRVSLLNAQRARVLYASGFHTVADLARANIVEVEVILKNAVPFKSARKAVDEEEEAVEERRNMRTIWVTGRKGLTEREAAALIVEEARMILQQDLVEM

Structure (SMILES)	IC50 [1] [µM]	IC50 (DLD1 BRCA2 (−/−) cells) [µM]	IC50 (DLD1 WT cells) [µM]
COc1ccccc1-c1cc(C)ncc1C(=O)Nc1nc2ccc(Cl)nc2s1	0.15 to 0.9	–	–
COc1ccc(C#N)cc1-c1cc(C)ncc1C(=O)Nc1nc2ncc(C(=O)N(C)C)nc2s1	0.001 to 0.015	> 2	> 10
COc1cnc(Cl)cc1-c1cc(C)ncc1C(=O)Nc1nc2ncc(-c3ccc(Cl)cc3)nc2s1	0.001 to 0.015	0.001 to 0.1	> 10
Cc1cc(N2CCN(CC3CC3)C(=O)C2)c(C(=O)Nc2nc3ncc(-c4ccncc4)cc3s2)cn1	0.15 to 0.9	–	–
COc1cc2c(cc1-c1cc(C)ncc1C(=O)Nc1nc3ncc(-c4ccncc4)nc3s1)CCNC2=O	0.001 to 0.015	0.5 to 2	> 10
